# PubChem BioAssay AID1671195 | Yale University | 2021
# Purpose: 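Genes whose knockdown alters LDL uptake in liver cancer cells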 (primary screen)
# Cells: human Huh7 hepatoma cells
# Reagent: siRNA pool against human genes, 18 nM
# Time to read-out: about 2 to 2.5 days of knockdown, then 8 h LDL uptake
# Treatment: DiI-labelled LDL at 30 µg/ml for 8 h, in lipoprotein-deficient serum medium
# Read-out: 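Per-cell DiI-LDL intensity by automated imaging; well means scaled to the plate median and given as a robust z-score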
# Scale: robust z-score: higher = more LDL uptake after knockdown
# Rule for the call: 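a gene counts as active if at least two replicate z-scores exceed ±2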
# This is one part, drawn at random, of about 22,000 reagents. In the full data, about 1,510 (6.9%) are marked active. 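Active includes knockdowns raising or lowering LDL uptake; positive z-scores mean more uptake, negative mean less.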 Unmarked entries are inactive.
The first 6 records as a preview:
Gene,"robust z-score, replicate 1","robust z-score, replicate 2","robust z-score, replicate 3"
RNF130,-0.609,0.252,0.697
UTP14A,-0.459,0.0513,0.0378
PLEKHA1,-0.722,-0.266,-0.341
GNL1,-0.711,-0.465,-1.21
SLC25A17,0.904,0.368,0.902
PLEKHF1,-1.83,-1.66,-1.84

Main list, from the start:
Gene,"robust z-score, replicate 1","robust z-score, replicate 2","robust z-score, replicate 3"
RNF130,-0.609,0.252,0.697
UTP14A,-0.459,0.0513,0.0378
PLEKHA1,-0.722,-0.266,-0.341
GNL1,-0.711,-0.465,-1.21
SLC25A17,0.904,0.368,0.902
PLEKHF1,-1.83,-1.66,-1.84
C21orf114 (retired record),1.42,2.16,1.72
CPNE5,-0.534,0.165,-0.889
UCN3,-0.541,-0.44,-0.465
ELOVL1,0.0203,-0.0394,0.0564
EPS8L3,0.469,1.41,2.15
C15orf40,-0.217,0.852,0.928
LINC01164,1.38,0.78,0.526
GNA12,2.6 (active),2.7,2.56
RBM44,0.0789,-0.12,0.274
INPP5D,-1.18,-1.37,-1.25
OR2K2,0.799,1.4,-0.691
LINC00314,-3.34 (active),-3.32,-3.22
GATC,-0.928,-1,-1.01
MAPK1,-0.107,0.27,0.0263
SLC25A5P7,-0.782,-0.73,-0.952
SLC39A11,0.248,0.0538,-0.783
CARMIL2,4.44 (active),4.45,4.41
TCFL5,0.809,0.904,1.08
SLC25A14,0.403,0.629,0.596
RAB22A,1.24,-0.868,-0.327
LOC100289495,0.931,0.711,0.732
MRPS21,-1.69,-0.647,-0.616
BCAR4,-2.27,-1.26,-1.15
STEAP2,0.36,0.339,0.152
LOC440873 (retired record),-0.0608,-0.442,-0.133
LINC00575,0.684,0.478,0.23
GANAB,0.106,-0.548,-0.593
RFX1,-1.22,-0.866,-1.02
ZNF747,0.175,0.644,0.0604
RPUSD1,-0.993,-0.855,-1.13
STAT4,0.397,0.72,0.19
TIMM22,0.124,1.61,1.07
TMEM147,-1.84,0.696,-0.355
LOC442100 (retired record),-0.221,-0.535,-0.264
VAMP1,-0.153,-0.15,-0.133
SLC30A10,-1.2,-1.33,-1.14
NRN1,1.72,0.735,1.61
RBFOX3,-0.758,0.548,0.147
LOC729222,-0.656,-0.628,-0.523
KPNA4,0.645,0.169,0.547
LOC391844 (retired record),1.45,0.273,0.0548
FRAT1,0.0755,-1.59,-0.715
LINC00994,-0.923,-0.785,-0.311
TNPO1,0.172,-0.0449,-0.0414
TPO,-0.915,-0.958,-1.2
FOXR2,-1.17,-1.4,-1.08
PDE6H,0.103,-0.0855,-0.357
ZNF436-AS1,-0.699,-0.82,-0.714
BDH2P1,0.229,-0.295,-0.329
SRD5A3,2.12,1.49,1.29
LOC401471,-0.191,0.455,-0.0018
RPL24,-0.479,-0.974,-0.189
KHDC3L,-0.195,0.66,-0.125
GUSBP5,-0.679,-0.987,-0.862
MYO19,-0.999,-0.62,-0.889
USP2,-0.825,-0.845,-1.2
LOC400749 (retired record),1.52,0.958,2.12
LOC440562 (retired record),0.373,0.0735,0.13
CCL21,0.167,0.459,0.575
CCNDBP1,-1.75,0.368,-2.49
MRGPRX1,-0.263,-0.0624,-0.113
LOC440284 (retired record),0.0272,0.00997,0.093
